Test results published in article PMC8576121.

Chains of the proteins cited; added tags and fusions are not shown. Lines headed by an entry give the natural chain unless they say otherwise; changes in a name come on top.
UniProt D4GZ79: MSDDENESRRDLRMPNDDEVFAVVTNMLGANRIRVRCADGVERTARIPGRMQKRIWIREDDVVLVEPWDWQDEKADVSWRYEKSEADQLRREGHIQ

Tests used:
Assay in all cases: affinity purification with mass spectrometry; N-His6 bait overproduced in H. volcanii; cytoplasmic extract on nickel chelating sepharose at room temperature in 2.1 M NaCl, 20 mM HEPES, 20 mM imidazole; four washes with 30 mM imidazole, elution with 700 mM imidazole; no RNase step, no cross-linking; co-isolated proteins identified by LC-MS/MS; three biological replicates; proteins found in the empty-vector or DHFR controls removed
[1] = molecular target: T1, NUDIX family hydrolase/eIF-2B domain protein (Haloferax volcanii) (UniProt D4GTG3)
T1 sequence: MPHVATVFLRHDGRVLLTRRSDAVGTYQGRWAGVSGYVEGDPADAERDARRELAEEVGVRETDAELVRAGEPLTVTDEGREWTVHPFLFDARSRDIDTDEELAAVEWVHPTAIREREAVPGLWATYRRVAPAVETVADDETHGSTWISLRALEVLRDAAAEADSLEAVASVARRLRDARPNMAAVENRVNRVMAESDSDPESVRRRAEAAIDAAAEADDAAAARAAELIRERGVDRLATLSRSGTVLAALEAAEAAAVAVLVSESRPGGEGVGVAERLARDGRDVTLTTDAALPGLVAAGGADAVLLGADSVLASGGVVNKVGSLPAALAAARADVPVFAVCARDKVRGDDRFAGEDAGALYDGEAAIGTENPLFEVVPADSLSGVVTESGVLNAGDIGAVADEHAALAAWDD

[2] = molecular target: T2, translation initiation factor aIF2 alpha subunit (Haloferax volcanii) (UniProt D4GT46)
T2 sequence: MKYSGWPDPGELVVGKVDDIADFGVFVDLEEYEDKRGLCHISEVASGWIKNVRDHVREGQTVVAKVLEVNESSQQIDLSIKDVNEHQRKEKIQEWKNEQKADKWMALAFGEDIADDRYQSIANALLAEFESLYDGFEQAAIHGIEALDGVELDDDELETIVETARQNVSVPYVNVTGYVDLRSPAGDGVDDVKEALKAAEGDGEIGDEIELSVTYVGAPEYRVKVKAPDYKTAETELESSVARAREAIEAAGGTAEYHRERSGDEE

[3] = molecular target: T3, translation initiation factor aIF2 beta subunit (aIF2β-1) (Haloferax volcanii) (UniProt D4GZP2)
T3 sequence: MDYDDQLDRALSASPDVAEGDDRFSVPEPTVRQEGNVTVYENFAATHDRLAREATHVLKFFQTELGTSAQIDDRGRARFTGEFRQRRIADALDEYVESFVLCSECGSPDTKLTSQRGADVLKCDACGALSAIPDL

[4] = molecular target: T4, translation initiation factor aIF2 beta subunit / probable RNA-binding protein (aIF2β-2) (Haloferax volcanii) (UniProt D4GVV8)
T4 sequence: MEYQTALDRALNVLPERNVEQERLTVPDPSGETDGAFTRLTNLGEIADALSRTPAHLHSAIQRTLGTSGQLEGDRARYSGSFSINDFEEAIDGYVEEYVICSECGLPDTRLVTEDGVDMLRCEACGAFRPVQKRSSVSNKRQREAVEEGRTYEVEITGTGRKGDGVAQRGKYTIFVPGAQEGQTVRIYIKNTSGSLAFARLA

[5] = molecular target: T5, translation initiation factor aIF2 gamma subunit (Haloferax volcanii) (UniProt D4GTD4)
T5 sequence: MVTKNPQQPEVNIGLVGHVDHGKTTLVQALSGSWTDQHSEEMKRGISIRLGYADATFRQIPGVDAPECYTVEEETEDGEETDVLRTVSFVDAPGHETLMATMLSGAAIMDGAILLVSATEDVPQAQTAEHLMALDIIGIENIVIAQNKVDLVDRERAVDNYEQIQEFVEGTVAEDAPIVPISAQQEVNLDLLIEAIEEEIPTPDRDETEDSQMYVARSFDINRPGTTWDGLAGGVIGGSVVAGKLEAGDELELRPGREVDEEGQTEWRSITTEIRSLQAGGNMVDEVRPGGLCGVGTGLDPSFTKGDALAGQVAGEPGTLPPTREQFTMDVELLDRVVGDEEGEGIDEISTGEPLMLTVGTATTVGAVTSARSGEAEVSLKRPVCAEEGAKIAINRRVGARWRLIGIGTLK

[6] = molecular target: translation initiation factor aIF-1A (aIF1A1) (Haloferax volcanii) (UniProt D4GZ79)
[7] = molecular target: T6, translation initiation factor aIF-1A (aIF1A2) (Haloferax volcanii) (UniProt D4GRU5)
T6 sequence: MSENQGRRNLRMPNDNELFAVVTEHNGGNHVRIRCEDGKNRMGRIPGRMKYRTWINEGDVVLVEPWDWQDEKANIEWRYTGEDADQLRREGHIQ

[8] = molecular target: T7, translation initiation factor aIF-5B (bacterial-type IF2) (Haloferax volcanii) (UniProt D4GTJ2)
T7 sequence: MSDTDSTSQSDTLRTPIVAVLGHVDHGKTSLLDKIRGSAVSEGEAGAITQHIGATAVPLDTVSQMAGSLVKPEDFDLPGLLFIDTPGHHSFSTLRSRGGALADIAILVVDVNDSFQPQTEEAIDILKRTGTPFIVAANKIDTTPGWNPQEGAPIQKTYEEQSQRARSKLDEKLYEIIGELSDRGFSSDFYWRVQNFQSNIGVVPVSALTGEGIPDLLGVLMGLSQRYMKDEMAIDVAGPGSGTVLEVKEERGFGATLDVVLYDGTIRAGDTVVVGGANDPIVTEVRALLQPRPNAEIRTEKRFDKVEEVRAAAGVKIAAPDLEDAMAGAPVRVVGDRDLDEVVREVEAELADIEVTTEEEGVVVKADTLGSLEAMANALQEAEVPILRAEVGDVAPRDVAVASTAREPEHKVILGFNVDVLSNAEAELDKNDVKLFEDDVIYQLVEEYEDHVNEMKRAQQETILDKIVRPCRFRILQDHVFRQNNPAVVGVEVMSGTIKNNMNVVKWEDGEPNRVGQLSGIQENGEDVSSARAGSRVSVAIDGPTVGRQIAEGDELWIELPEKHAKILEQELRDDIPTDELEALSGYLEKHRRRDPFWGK

binding [1]: no binding
B1: eIF-2B domain protein (aIF2Bδ) (protein, UniProt D4GW08 1-282)
chain: MIDETIEEIREMQTHSSSVVAVKATRALAELTERDYATVEEFERDLERNVGALKRANPSHASLYNALQDVLHSVQGEADDLDEARELTLSTIDRVVETVETGKRHAAQQAAATIEDGQTFLTHDYSSTVMEAVELAVADGAQLTAYVTEARPRFLGRKFARELAAIDDVEPHLMVDGASGMFLPGCDRVIIGMDCIVEETLYNRIGTFPLVAAANEVGVPVTVVGSGAKVVDGGFRFENEIRSPSEVMLEPVEGIELENPAYDATPVDLIDEVITDEGVIEF

binding [2]: no binding
binding [3]: no binding
binding [4]: no binding
binding [5]: no binding
B2: translation initiation factor aIF-1A (aIF1A2) (protein, UniProt D4GRU5 1-94)
chain: T6 sequence

binding [6]: binds
binding [7]: binds
binding [8]: binds
binding [2]: binds
binding [5]: binds
B3: ribose-1,5-bisphosphate isomerase (proposed new name aIF2Bα) (protein, UniProt D4GV73 1-323)
chain: MDDRVHPEVRRTATEIDTMEIRGAATIADAAARALRTQATESDAADAEAFRAELRATARTLHETRPTAVSLPNALRYVLRDMSSTTVEGLRQSVVDSADEFCARLERAQADLGQVGANRLRDGDTIMTHCHSTDALACVEAAVEQGKHIEAVVKETRPRNQGHITAKRLHELGVPVTLIVDSAARRYLNDVDHVLVGADAVAADGSVINKIGTSGLAVNARERGTPIMVAAQTLKLHPGTMTGHTVDIEMRDTAEVVDDDTLADLGNPTVKNPAFDVTPPRYVDAIVTERGQFPPESIVILMRELFGEGTSEPWAEPSPRAEP

These are yes or no findings as the source states them, for the method shown. In cells and extracts the contact can be indirect. A yes stands for co-enrichment or nearness to the bait. Other partners may have been found. For some of these results: A no says only that the protein was not detected with the bait. Each block holds one binder with its values, some of them ahead of it.
